T1: GBPL3-TurboID-3HA (Arabidopsis) (UniProt F4KG14)
T1 sequence: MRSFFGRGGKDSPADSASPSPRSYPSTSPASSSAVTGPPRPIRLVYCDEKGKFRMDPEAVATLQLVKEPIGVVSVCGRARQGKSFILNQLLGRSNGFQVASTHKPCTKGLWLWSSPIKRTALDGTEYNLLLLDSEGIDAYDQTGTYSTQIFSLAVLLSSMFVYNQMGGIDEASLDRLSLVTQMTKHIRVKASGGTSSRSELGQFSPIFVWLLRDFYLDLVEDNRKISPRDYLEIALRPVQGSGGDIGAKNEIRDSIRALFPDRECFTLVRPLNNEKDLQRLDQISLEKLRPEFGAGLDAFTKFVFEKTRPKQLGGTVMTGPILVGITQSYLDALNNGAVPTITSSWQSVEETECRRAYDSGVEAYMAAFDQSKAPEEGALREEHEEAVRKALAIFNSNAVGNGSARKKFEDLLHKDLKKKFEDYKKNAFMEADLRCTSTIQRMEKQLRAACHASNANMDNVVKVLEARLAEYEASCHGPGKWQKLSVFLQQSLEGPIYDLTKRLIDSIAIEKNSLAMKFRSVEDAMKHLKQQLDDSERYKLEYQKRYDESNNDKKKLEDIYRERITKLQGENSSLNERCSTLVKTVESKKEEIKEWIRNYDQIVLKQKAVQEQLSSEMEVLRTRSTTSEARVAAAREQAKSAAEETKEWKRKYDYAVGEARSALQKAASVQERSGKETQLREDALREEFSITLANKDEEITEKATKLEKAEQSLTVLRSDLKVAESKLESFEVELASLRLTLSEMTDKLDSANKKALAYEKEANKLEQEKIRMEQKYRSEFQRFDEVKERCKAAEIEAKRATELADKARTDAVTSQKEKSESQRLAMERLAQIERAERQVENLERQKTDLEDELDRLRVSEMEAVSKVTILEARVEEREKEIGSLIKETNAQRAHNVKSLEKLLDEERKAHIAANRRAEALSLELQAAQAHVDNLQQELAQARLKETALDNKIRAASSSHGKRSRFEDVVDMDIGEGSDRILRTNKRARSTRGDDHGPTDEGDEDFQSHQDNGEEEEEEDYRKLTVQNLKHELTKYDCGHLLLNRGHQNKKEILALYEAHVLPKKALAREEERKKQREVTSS

Protein sequences, listed by entry. Tags and fused reporters are not part of them. Lines headed by an entry give the natural chain unless they say otherwise; changes in a name come on top.
UniProt Q9M9N3: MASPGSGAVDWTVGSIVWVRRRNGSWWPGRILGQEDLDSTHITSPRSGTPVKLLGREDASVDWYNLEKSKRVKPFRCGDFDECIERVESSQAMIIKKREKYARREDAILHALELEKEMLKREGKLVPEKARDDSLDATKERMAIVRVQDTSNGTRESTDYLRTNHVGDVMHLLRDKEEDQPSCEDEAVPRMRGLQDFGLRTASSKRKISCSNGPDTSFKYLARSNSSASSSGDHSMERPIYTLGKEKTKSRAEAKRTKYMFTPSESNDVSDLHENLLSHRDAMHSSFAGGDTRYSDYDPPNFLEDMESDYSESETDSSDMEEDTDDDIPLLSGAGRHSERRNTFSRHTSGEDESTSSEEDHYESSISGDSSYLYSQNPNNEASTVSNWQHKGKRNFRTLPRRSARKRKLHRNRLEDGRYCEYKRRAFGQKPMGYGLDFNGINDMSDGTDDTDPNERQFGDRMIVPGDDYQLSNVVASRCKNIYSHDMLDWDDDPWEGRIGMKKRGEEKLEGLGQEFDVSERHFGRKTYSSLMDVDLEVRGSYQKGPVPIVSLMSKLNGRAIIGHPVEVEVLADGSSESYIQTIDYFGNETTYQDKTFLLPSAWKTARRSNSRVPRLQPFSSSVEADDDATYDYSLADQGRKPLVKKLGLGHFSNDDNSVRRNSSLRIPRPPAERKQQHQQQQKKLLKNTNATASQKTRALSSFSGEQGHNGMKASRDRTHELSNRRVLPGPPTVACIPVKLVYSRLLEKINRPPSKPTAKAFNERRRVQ
UniProt Q8W117: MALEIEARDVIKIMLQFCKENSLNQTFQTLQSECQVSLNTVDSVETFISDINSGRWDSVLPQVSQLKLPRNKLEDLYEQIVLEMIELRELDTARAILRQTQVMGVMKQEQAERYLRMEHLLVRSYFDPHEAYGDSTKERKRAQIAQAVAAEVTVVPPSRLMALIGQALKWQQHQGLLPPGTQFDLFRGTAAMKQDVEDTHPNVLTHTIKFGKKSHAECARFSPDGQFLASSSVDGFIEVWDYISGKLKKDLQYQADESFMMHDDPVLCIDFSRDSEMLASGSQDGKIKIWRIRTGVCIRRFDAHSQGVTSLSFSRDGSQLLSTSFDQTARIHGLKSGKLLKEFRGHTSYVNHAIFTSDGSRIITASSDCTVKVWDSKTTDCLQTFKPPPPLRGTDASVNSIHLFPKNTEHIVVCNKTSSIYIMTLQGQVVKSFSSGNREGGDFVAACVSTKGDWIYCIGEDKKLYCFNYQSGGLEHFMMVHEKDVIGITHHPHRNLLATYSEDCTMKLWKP
UniProt A4GSN8: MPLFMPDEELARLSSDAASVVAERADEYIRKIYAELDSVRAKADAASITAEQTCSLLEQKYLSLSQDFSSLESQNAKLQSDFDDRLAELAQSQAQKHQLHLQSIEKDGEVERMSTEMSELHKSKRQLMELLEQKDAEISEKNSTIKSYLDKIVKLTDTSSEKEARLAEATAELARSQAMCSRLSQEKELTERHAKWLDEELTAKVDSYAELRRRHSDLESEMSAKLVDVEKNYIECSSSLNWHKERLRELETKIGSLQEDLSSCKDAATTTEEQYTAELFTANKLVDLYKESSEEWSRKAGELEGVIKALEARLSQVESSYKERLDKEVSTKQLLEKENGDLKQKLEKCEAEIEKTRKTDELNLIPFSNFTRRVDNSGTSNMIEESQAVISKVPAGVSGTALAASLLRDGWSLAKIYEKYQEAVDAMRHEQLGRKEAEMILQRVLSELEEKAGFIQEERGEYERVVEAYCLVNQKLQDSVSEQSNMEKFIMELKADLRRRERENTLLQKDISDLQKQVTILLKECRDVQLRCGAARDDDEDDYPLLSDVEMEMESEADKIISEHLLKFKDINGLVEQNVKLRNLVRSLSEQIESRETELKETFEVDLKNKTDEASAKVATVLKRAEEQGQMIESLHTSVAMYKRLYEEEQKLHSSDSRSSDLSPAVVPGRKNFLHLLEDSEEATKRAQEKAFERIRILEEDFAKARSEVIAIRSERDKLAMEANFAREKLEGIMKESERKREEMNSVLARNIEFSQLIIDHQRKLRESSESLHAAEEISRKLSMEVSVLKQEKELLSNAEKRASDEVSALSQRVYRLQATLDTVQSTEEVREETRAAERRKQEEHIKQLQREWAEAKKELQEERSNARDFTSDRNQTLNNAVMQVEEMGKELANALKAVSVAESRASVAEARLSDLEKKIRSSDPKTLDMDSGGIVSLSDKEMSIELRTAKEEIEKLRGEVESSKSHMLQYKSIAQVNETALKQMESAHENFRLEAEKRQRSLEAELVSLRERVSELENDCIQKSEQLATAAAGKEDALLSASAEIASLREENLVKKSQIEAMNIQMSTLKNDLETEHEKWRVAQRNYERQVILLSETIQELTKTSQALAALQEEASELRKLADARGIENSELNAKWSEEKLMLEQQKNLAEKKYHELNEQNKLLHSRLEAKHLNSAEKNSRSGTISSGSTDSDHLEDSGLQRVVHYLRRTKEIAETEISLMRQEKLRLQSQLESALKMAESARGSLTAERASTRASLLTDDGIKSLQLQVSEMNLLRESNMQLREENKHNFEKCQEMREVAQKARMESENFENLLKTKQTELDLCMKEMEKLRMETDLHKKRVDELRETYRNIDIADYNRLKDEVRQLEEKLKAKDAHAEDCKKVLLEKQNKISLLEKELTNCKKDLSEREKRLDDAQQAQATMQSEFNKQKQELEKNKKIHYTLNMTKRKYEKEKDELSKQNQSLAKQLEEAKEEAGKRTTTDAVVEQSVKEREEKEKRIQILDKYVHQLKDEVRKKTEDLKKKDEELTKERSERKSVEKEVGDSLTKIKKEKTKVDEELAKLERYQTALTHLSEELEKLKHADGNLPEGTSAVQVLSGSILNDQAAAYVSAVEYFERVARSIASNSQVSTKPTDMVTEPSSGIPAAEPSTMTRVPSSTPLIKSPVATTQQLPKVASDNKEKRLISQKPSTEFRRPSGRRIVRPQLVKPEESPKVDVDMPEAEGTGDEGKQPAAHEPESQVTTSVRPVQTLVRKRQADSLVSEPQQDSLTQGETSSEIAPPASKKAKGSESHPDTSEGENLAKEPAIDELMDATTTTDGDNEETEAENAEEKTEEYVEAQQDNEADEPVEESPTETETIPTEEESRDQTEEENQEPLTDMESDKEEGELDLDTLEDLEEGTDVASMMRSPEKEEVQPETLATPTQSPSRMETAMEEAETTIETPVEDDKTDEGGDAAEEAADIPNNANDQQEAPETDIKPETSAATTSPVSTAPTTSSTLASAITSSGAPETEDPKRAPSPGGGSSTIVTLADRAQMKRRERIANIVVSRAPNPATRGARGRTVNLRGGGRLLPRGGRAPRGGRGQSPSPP

B1: Nup50b (protein, UniProt Q9LW88 1-465)
chain: MGDSDNAIPFSRKRTALKELSRDNPGLDDDDEDTSALESGTFNTASKEVLASRRIIRVRRTDRSATAPPASNPFTGIRLVPFTAPAPSTAAAETTKPLSAGKQETLADGRSDATKETDGDSKEKSDAIDAVGKQETQGDEISAKTKDIIDGGEKEMSEAVNSVEGGGAVNKNEDEIKTTMVTEVAAGEETVKDDNNNSNTVEGSDCVVKDTGGNQTEKEGKEGDGNEDTEKNGDSGALSSFHQHSSSKNAFTGLASTGFSASSFSFGLVPQEGSTGSGSEQSSFSFGQANNGNSSLFGASVATSITTKSTETTTAFPSKQDVSVETGEENEKAAFTADSVMFEYLEGGWKERGKGELKVNISTTENRKARLVMRSKGNYRLTLNASLYPEMKLAKMDKKGITFACVNSVSDAKDGLSTLALKFKDPTVVEEFRAVIEEHKDSKPSVAEAAAPLKTPENSPSAEDA
B2: TBP-ASSOCIATED FACTOR 5 (TAF5) (protein, UniProt Q6S7B0 1-669)
chain: MDPEQINEFVVGYLKKKGFSSAAKDLESYHHQNNNGSSFTSVDYHNDPELTKLIRSFSQQEDDPTRYREGYSKLRSWAYNSLDLYKHELLRVMYPVFIHCYMDLVGKGHTQEARAFFNSFRKDHEMVHLRDLQKLEGVLSPSHLEEMEFARSLRKSKVNIKFCQYSYELLLQYLHSTVSTLMLGIINEHINFQVYSGQPTSSSDDIEAVTIVGSFQDTANHINQKEIQWGLLEDSLEDRLEKTGGLLSDSEKGQGESKDGDADDSKKRSTEIGKQGSSLKKLKKDKAGNATAKVARLETITVSPAPRVKPELALPVMSTDVEQSILEDLRNRVQLSSVAMPSVSFYTFVNTHNGLNCSSISHDGSLVAGGFSDSSIKVWDMAKIGQAGSGALQAENDSSDQSIGPNGRRSYTLLLGHSGPVYSATFSPPGDFVLSSSADTTIRLWSTKLNANLVCYKGHNYPVWDAQFSPFGHYFASCSHDRTARIWSMDRIQPLRIMAGHLSDVDCVQWHPNCNYIATGSSDKTVRLWDVQTGECVRIFIGHRSMVLSLAMSPDGRYMASGDEDGTIMMWDLSTARCITPLMGHNSCVWSLSYSGEGSLLASGSADCTVKLWDVTSSTKLTKAEEKNGNSNRLRSLRTFPTKSTPVHALRFSRRNLLFAAGAISKPAN
B3: ARABIDOPSIS RESPONSE REGULATOR 1 (ARR1) (protein, UniProt Q940D0 1-690)
chain: MMNPSHGRGLGSAGGSSSGRNQGGGGETVVEMFPSGLRVLVVDDDPTCLMILERMLRTCLYEVTKCNRAEMALSLLRKNKHGFDIVISDVHMPDMDGFKLLEHVGLEMDLPVIMMSADDSKSVVLKGVTHGAVDYLIKPVRMEALKNIWQHVVRKRRSEWSVPEHSGSIEETGERQQQQHRGGGGGAAVSGGEDAVDDNSSSVNEGNNWRSSSRKRKDEEGEEQGDDKDEDASNLKKPRVVWSVELHQQFVAAVNQLGVEKAVPKKILELMNVPGLTRENVASHLQKYRIYLRRLGGVSQHQGNLNNSFMTGQDASFGPLSTLNGFDLQALAVTGQLPAQSLAQLQAAGLGRPAMVSKSGLPVSSIVDERSIFSFDNTKTRFGEGLGHHGQQPQQQPQMNLLHGVPTGLQQQLPMGNRMSIQQQIAAVRAGNSVQNNGMLMPLAGQQSLPRGPPPMLTSSQSSIRQPMLSNRISERSGFSGRNNIPESSRVLPTSYTNLTTQHSSSSMPYNNFQPELPVNSFPLASAPGISVPVRKATSYQEEVNSSEAGFTTPSYDMFTTRQNDWDLRNIGIAFDSHQDSESAAFSASEAYSSSSMSRHNTTVAATEHGRNHQQPPSGMVQHHQVYADGNGGSVRVKSERVATDTATMAFHEQYSNQEDLMSALLKQEGIAPVDGEFDFDAYSIDNIPV
B4: C-TERMINAL DOMAIN PHOSPHATASE-LIKE 1 (CPL1) (protein, UniProt Q5YDB6 1-967)
chain: MYSNNRVEVFHGDGRLGELEIYPSRELNQQQDDVMKQRKKKQREVMELAKMGIRISHFSQSGERCPPLAILTTISSCGLCFKLEASPSPAQESLSLFYSSCLRDNKTAVMLLGGEELHLVAMYSENIKNDRPCFWAFSVAPGIYDSCLVMLNLRCLGIVFDLDETLVVANTMRSFEDKIDGFQRRINNEMDPQRLAVIVAEMKRYQDDKNLLKQYIESDQVVENGEVIKVQSEIVPALSDNHQPLVRPLIRLQEKNIILTRINPMIRDTSVLVRMRPSWEELRSYLTAKGRKRFEVYVCTMAERDYALEMWRLLDPEGNLINTNDLLARIVCVKSGFKKSLFNVFLDGTCHPKMALVIDDRLKVWDEKDQPRVHVVPAFAPYYSPQAEAAATPVLCVARNVACGVRGGFFRDFDDSLLPRIAEISYENDAEDIPSPPDVSHYLVSEDDTSGLNGNKDPLSFDGMADTEVERRLKEAISASSAVLPAANIDPRIAAPVQFPMASASSVSVPVPVQVVQQAIQPSAMAFPSIPFQQPQQPTSIAKHLVPSEPSLQSSPAREEGEVPESELDPDTRRRLLILQHGQDTRDPAPSEPSFPQRPPVQAPPSHVQSRNGWFPVEEEMDPAQIRRAVSKEYPLDSEMIHMEKHRPRHPSFFSKIDNSTQSDRMLHENRRPPKESLRRDEQLRSNNNLPDSHPFYGEDASWNQSSSRNSDLDFLPERSVSATETSADVLHGIAIKCGAKVEYKPSLVSSTDLRFSVEAWLSNQKIGEGIGKSRREALHKAAEASIQNLADGYMRANGDPGPSHRDATPFTNENISMGNANALNNQPFARDETALPVSSRPTDPRLEGSMRHTGSITALRELCASEGLEMAFQSQRQLPSDMVHRDELHAQVEIDGRVVGEGVGSTWDEARMQAAERALSSVRSMLGQPLHKRQGSPRSFGGMSNKRLKPDFQRSLQRMPSSGRYS
B5: ACTIN-RELATED PROTEIN 4 (ARP4) (protein, UniProt Q84M92 1-441)
chain: MYGGDEVSAIVVDLGSHTCKAGYAGEDAPKAVFPSVIGAVDGVEAMDVDVDSTKTNSNSEDSKTESEKEKSKRKLYVGSQAMSYRRDHMEVLSPIKDGIVSDWDLVDNIWEHAFKSCLMIDPTEHPMLLAEPPLNTQQQREKAAELMFEKYKVPALFMAKNPVLTSFATGRATSLVVDCGGGSTTISPVHDGYVLQKAVVSSPLGGEFLTDCLLKSLESKGIKIRPRYSFKRKEVRAGEFQVEDVDIPDTTESYKLFCQRMIVGDIKDSICRVPDTPYDDKSYSNIPTTSYELPDGQTLEIGADRFKVPDVMFNPSIVQTIPGMEKYAEMIPSVRGLPHMVMESINKCDVDIRRELYSSILLAGGTSSMQQLKERLEKDLIEESPHSARVKVLASGNTTERRFSVWIGGSILASLGSFQQMWFSKSEYEEHGASYIQRKCP
B6: ANTHESIS PROMOTING FACTOR 1 (APRF1) (protein, UniProt Q9LYK6 1-330)
chain: MSLTELDDGLVRRMAMGAVFSDFGGKIHSVGFHRTDDLLVTSSEDDSLRLFDIANAKQLKITYHKKHGTDRVCFTHHPSSLICSSRYNLESTGESLRYLSMYDNRILRYFKGHKDRVVSLCMSPINDSFMSGSLDRSVRLWDLRVNACQGILHLRGRPAVAYDQQGLVFAIAMEGGAVKLFDSRCYDKGPFDTFLVGGDTAEVNDIKFSNDGKSMLLTTTNNNIYVLDAYRGEKKCGFSLEPSQGTPIEATFTPDGKYVLSGSGDGTLHAWNIENPSEVARWENNIGVVSCLKWAPRRAMFVAASTVLTFWIPNDGESPAPADPPTDQQQ

Data on 12 molecules can be found in publication PMC9629626.

Results are given in words; binding and its absence hold for the method and conditions named. In cells and extracts the contact can be indirect. A yes stands for co-enrichment or nearness to the bait. Other partners may have been found.

In the experiment the target is T1, GBPL3-TurboID-3HA (Arabidopsis). As to the kind of experiment: proximity labelling; GBPL3-TurboID-3HA (native promoter) as bait in 1-week-old Arabidopsis seedlings, 50 uM biotin 4 h at room temperature; biotinylated proteins on streptavidin beads; label-free quantitative mass spectrometry; cutoffs fold-change > 4, p < 0.01 against wild-type non-transformants; 2 biological replicates.
“PWWP DOMAIN INTERACTOR OF POLYCOMBS1 (PWO1) (from UniProt Q9M9N3)”: the binding result is on record as “binds”.
With “SUPPRESSORS OF MEC-8 AND UNC-52 1 (SMU1) (from UniProt Q8W117 1-511)”, the binding entry is “binds”.
As for Nup50c, the entry is “binds”; as for Nup82, “binds”.
In the case of “ABA-RESPONSIVE KINASE SUBSTRATE 2 (AKS2)”, the binding entry was “binds”.
NUA (from UniProt A4GSN8 1-2093): the binding result is on record as “binds”.
As to B1, the binding result was “binds”.
As for B2, the entry is “binds”.
For the molecule B3, the binding entry is “binds”.
Regarding B4, the binding entry is reported as “binds”.
On to B5, for which the binding entry is on record as “binds”.
Regarding B6, the binding result was “binds”.
